This note sets out measurements from PMC3052438.

Chains of the proteins cited; added tags and fusions are not shown. Lines headed by an entry give the natural chain unless they say otherwise; changes in a name come on top. A line that says so, or that is headed by a name, gives the form on record, which may keep a tag or linker.
UniProt P33895: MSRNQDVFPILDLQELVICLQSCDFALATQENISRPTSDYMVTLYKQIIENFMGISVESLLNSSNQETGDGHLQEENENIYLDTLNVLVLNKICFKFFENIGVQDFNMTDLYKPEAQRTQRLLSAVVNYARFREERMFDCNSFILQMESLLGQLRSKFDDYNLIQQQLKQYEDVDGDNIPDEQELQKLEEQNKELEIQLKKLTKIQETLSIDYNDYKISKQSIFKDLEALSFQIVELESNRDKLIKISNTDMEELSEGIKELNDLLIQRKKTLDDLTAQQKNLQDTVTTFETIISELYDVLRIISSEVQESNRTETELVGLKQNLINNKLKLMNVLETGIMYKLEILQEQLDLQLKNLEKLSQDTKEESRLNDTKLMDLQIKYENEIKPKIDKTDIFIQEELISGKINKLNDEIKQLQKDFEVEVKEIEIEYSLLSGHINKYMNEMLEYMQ
UniProt P40460: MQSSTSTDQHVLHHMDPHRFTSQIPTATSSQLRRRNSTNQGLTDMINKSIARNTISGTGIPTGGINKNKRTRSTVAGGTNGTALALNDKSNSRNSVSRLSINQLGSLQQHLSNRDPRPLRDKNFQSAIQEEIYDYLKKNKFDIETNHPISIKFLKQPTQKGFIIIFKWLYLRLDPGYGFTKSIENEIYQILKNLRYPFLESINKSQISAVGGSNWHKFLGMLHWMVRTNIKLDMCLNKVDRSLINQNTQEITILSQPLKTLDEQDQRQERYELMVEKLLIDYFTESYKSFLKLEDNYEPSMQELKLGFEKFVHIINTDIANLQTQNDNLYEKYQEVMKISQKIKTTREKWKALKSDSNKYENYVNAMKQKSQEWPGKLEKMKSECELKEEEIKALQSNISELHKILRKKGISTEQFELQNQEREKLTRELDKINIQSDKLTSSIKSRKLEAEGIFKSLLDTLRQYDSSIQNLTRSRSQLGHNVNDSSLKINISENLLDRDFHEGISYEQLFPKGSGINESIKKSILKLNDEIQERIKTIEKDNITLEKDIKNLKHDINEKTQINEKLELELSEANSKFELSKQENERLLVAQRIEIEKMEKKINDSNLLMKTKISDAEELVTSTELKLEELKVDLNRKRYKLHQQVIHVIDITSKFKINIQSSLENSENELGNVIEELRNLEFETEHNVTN
Ndc80Δ490-510, tagged with HA (P40460, form named): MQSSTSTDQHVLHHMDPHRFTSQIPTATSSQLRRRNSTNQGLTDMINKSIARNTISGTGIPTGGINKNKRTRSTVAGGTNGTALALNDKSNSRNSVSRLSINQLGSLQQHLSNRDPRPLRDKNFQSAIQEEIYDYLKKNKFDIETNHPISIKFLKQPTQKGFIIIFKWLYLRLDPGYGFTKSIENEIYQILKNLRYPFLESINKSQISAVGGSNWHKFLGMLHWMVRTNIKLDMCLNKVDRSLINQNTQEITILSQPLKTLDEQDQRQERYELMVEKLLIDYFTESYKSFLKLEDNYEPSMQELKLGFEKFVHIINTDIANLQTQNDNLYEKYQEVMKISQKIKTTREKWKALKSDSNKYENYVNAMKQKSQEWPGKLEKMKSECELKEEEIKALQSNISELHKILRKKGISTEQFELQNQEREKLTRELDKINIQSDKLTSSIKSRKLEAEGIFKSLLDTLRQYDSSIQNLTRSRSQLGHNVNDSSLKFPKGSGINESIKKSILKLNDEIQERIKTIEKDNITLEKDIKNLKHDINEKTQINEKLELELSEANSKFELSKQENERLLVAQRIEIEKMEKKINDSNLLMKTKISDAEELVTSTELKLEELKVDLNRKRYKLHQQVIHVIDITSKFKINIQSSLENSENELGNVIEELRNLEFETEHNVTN

These are yes or no findings as the source states them, for the method shown. For some of these results: Binding seen in cells or lysates may run through a third protein. Some binding calls cover weakened binding; strength is not graded here.

One test has as its target Nuf2-myc (S. cerevisiae) (UniProt P33895). Nature of the test: co-IP; Nuf2-myc immunoprecipitated with a myc antibody, Ndc80-HA detected by western blotting with an HA antibody; cells treated with α factor, released at 35°C and harvested after 70 min (majority in metaphase).
Test [1] addresses Nuf2 (two-hybrid fusion) (S. cerevisiae) (UniProt P33895). The test is described as follows: two-hybrid; proteins fused with a DNA binding domain or an activation domain; cells spotted on histidine drop-out plates, 35°C, 48 hr; growth suggests interaction.

On to “Ndc80 wild-type, tagged with HA (from UniProt P40460 1-691)”, for which the binding result in the test with Nuf2-myc (S. cerevisiae) is “binds”. As for “Ndc80Δ490-510 (two-hybrid fusion) (from UniProt P40460 1-691)”, the binding entry in test [1] is “binds”. Consider “Ndc80Δ490-510, tagged with HA (from UniProt P40460 1-691)”, for which the binding entry with Nuf2-myc (S. cerevisiae) is “binds”.

As to “wild-type Ndc80 (two-hybrid fusion) (from UniProt P40460 1-691)”, the binding entry in test [1] is “binds”.
